Laboratory results: PubChem BioAssay AID1159584 (Peter MacCallum Cancer Centre, 2016)
In all, the deposit lists about 18,000 reagents; shown is a random part of them. Reagents against one gene are numbered here. Not all columns of the deposit are shown. Not stated in the record: the amount of reagent, the time to read-out.

Screen: 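Genes whose loss is lethal only together with E-cadherin loss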 (primary screen)
System: human MCF10A breast epithelial cells, parental and CDH1-null
Knock-down reagent: siRNA against human genes
Measured: 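Cell viability by CellTiter-Glo ATP luminescence, each line scaled to the mean of mock wells across plates, then CDH1-null over parental ratio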
Scale: CDH1-null / parental viability ratio: higher = CDH1-null cells survive relatively better than parental; CDH1-null viability vs mock: higher = more viable CDH1-null cells

The opening 3 records as a preview:
Gene | reagent no. | CDH1-null / parental viability ratio | CDH1-null viability vs mock (fraction of mock)
SLC25A28 | 1 | 0.7 | 0.58
ZNRD2 | 1 | 0.75 | 0.55
MECP2 | 1 | 0.96 | 0.46

The listing, repeating the preview:
Gene | reagent no. | CDH1-null / parental viability ratio | CDH1-null viability vs mock (fraction of mock)
SLC25A28 | 1 | 0.7 | 0.58
ZNRD2 | 1 | 0.75 | 0.55
MECP2 | 1 | 0.96 | 0.46
LHFPL7 | 1 | 0.57 | 0.36
ASGR1 | 1 | 0.96 | 0.5
AMZ2 | 1 | 0.93 | 0.91
PDIK1L | 1 | 1.11 | 0.9
UTS2B | 1 | 0.79 | 0.52
CAMK2G | 1 | 1.07 | 1.02
CDH15 | 1 | 1.13 | 0.81
H4C4 | 1 | 1.42 | 0.74
FUNDC1 | 1 | 1.03 | 1.08
ATOH8 | 1 | 1.08 | 0.8
MBLAC2 | 1 | 1.4 | 0.74
MAN2B2 | 1 | 1.04 | 1.02
LCOR | 1 | 0.97 | 0.85
LCOR | 2 | 0.93 | 0.7
XKR6 | 1 | 0.89 | 0.5
LMNTD1 | 1 | 0.86 | 0.69
TARBP1 | 1 | 1.11 | 1
CRACR2A | 1 | 1.04 | 0.47
ECRG4 | 1 | 0.8 | 0.82
C3P1 | 1 | 1.03 | 0.68
STRIP2 | 1 | 0.93 | 0.71
DUS1L | 1 | 1.15 | 0.6
WASF3 | 1 | 1.01 | 0.99
ACTR3B | 1 | 0.96 | 1
GAL3ST2 | 1 | 0.81 | 0.6
